These are yes or no findings as the source states them, for the method shown. In cells and extracts the contact can be indirect. Some results given as binding are weak or reduced against the parent protein; the word gives no strength.
Key:
[1] = biological target: SUZ12 (human (endogenous in MCF7)) (UniProt Q15022); test: co-IP
[2] = biological target: EZH2 (human (endogenous in MCF7)) (UniProt Q15910); test: co-IP

Chains of the proteins cited; added tags and fusions are not shown.
UniProt Q15022: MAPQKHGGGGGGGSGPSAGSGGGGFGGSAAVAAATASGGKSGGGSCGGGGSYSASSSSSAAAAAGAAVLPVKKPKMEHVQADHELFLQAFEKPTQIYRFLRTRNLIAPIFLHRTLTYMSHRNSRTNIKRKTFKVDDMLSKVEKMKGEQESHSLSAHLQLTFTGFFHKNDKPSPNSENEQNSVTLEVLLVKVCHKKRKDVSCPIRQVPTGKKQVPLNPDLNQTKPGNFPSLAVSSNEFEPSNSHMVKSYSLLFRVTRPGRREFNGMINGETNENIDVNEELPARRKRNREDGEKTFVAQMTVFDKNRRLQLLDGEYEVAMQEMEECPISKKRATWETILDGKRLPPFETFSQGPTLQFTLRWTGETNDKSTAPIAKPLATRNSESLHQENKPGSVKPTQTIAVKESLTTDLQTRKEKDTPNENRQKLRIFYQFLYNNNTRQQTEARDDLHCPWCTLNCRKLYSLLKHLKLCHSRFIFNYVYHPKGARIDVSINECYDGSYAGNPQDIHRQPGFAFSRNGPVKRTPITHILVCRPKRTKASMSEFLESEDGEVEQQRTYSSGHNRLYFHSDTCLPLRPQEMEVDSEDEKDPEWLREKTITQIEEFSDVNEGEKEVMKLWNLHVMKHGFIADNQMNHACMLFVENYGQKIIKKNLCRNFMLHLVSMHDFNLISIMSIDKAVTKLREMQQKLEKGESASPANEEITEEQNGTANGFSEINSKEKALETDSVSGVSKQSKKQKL
UniProt Q15910: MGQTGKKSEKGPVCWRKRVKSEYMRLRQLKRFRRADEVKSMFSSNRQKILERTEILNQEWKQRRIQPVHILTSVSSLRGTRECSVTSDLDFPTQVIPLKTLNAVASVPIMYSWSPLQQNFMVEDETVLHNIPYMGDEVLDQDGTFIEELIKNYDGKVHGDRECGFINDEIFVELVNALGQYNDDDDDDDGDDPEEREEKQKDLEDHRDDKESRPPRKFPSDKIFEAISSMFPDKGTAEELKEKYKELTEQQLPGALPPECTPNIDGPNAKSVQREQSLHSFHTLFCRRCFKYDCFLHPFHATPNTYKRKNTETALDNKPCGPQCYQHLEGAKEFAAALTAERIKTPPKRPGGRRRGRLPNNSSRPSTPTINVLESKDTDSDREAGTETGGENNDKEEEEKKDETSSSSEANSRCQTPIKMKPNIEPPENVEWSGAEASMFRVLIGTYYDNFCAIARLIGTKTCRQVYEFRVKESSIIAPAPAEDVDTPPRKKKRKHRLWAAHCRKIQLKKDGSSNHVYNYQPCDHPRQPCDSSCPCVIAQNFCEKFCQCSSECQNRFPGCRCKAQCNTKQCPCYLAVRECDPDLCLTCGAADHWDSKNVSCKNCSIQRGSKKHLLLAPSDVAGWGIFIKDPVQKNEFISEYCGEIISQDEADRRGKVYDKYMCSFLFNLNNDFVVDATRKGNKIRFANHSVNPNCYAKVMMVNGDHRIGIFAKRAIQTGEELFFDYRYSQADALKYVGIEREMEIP
UniProt Q9Y483: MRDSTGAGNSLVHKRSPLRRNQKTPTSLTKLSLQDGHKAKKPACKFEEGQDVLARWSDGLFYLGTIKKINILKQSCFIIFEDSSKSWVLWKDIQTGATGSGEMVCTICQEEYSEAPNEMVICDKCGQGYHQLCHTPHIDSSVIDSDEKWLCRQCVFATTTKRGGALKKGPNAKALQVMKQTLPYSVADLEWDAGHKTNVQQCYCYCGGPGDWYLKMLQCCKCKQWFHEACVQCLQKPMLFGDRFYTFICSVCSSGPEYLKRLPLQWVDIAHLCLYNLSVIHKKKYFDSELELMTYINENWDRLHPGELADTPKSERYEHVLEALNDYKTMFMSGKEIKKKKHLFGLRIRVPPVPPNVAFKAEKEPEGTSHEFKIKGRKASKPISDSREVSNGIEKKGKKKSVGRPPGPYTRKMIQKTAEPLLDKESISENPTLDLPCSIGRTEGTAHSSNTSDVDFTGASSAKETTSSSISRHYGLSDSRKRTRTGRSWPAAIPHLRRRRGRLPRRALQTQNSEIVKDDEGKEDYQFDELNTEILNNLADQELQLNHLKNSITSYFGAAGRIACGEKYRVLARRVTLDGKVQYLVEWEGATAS
UniProt A6NHQ4: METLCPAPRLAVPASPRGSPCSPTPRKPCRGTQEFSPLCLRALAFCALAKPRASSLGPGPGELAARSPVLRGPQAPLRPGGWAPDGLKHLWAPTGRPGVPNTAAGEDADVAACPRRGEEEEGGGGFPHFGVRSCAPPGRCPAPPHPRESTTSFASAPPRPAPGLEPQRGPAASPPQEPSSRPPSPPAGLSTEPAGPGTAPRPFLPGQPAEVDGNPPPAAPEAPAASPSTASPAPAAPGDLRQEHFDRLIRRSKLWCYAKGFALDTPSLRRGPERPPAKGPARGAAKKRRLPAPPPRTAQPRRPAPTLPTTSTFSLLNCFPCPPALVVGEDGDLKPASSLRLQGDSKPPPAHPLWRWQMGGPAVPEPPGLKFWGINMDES

Q: Which results are given for PCL2 (from UniProt Q9Y483 1-593)?
A: binding [1]: binds; binding [2]: binds

Q: With EPOP (from UniProt A6NHQ4 1-379) as the substance, how does the binding [2] read?
A: binds

Q: PCL3 (from UniProt Q5T6S3 1-580) was tested. Which binding [2] did it give?
A: binds

Source: article doi:10.1101/2020.01.08.898577
